The target of the assay is PRMT1 (Homo sapiens, UniProt Q99873). The assay can be described thus: RKO methylation assay, In Cell Western (ICW) for mono-methyl arginine and DNA content. It is filed as cell-based. Particulars: RKO cells, 72 hours, mono-methyl arginine signal normalised to DRAQ5, percent activation. The source says: RKO Methylation Assay RKO adherent cells were purchased from ATCC (American Type Culture Collection), Manassas, Va., USA. DMEM/Glutamax medium, penicillin-streptomycin, heat inactivated fetal bovine serum, 0.05% trypsin and D-PBS were purchased from Life Technologies, Grand Island, N.Y., USA. Odyssey blocking buffer, 800CW goat anti-rabbit IgG (H+L) antibody, and Licor Odyssey infrared scanner were purchased from Licor Biosciences, Lincoln, Nebr., USA. Mono-methyl arginine antibody was purchased from Cell Signaling Technology, Danvers, Mass., USA. Methanol was purchased from VWR, Franklin, Mass., USA. 10% Tween 20 was purchased from KPL, Inc., Gaithersburg, Md., USA. DRAQ5 was purchased from Biostatus Limited, Leicestershire, UK. […] First, the ratio for each well was determined by: Each plate included fourteen control wells of DMSO only treatment (minimum activation) as well as fourteen control wells for maximum activation treated with 20 μM of a reference compound. The average of the ratio values for each control type was calculated and used to determine the percent activation for each test well in the plate. […] Percent activation was determined and EC30 curves were generated using triplicate wells per concentration of compound.

Sequences of proteins named here, by UniProt entry; tags and fusion partners are left off.
UniProt Q99873, whole entry: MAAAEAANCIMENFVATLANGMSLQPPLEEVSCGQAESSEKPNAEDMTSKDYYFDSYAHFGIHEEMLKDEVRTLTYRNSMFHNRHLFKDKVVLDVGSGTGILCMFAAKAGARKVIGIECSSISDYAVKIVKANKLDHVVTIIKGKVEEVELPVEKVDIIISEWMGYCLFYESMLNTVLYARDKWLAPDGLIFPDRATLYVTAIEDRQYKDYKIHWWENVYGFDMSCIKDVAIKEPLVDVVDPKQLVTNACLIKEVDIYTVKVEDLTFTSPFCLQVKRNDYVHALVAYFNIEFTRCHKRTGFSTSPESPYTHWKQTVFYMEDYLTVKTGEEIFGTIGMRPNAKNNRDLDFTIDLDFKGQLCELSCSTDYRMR

Structures were worked out from names or drawings and are uncertain.

The values that follow come from patent publication US20170291905A1, “ARGININE METHYLTRANSFERASE INHIBITORS AND USES THEREOF” (Epizyme, Inc., priority 2014, published 2017).

For `CNCCN(C)Cc1ncsc1[C@H]1CC[C@@]2(CC1)CC(C)(C)CO2` [compound 83], the “PRMT1 RGG ICW EC30” value turned out to be 18.49 nM.
